Results reported in US20220380454A1.
These are yes or no findings as the source states them, for the method shown. In cells and extracts the contact can be indirect. Some binding calls cover weakened binding; strength is not graded here. Where a sequence is shown, tags or fusion partners need not be part of it.

Sequences of proteins named here, by UniProt entry; tags and fusion partners are left off. Residues count along the entry.
UniProt Q91ZI0, residues 32-3301: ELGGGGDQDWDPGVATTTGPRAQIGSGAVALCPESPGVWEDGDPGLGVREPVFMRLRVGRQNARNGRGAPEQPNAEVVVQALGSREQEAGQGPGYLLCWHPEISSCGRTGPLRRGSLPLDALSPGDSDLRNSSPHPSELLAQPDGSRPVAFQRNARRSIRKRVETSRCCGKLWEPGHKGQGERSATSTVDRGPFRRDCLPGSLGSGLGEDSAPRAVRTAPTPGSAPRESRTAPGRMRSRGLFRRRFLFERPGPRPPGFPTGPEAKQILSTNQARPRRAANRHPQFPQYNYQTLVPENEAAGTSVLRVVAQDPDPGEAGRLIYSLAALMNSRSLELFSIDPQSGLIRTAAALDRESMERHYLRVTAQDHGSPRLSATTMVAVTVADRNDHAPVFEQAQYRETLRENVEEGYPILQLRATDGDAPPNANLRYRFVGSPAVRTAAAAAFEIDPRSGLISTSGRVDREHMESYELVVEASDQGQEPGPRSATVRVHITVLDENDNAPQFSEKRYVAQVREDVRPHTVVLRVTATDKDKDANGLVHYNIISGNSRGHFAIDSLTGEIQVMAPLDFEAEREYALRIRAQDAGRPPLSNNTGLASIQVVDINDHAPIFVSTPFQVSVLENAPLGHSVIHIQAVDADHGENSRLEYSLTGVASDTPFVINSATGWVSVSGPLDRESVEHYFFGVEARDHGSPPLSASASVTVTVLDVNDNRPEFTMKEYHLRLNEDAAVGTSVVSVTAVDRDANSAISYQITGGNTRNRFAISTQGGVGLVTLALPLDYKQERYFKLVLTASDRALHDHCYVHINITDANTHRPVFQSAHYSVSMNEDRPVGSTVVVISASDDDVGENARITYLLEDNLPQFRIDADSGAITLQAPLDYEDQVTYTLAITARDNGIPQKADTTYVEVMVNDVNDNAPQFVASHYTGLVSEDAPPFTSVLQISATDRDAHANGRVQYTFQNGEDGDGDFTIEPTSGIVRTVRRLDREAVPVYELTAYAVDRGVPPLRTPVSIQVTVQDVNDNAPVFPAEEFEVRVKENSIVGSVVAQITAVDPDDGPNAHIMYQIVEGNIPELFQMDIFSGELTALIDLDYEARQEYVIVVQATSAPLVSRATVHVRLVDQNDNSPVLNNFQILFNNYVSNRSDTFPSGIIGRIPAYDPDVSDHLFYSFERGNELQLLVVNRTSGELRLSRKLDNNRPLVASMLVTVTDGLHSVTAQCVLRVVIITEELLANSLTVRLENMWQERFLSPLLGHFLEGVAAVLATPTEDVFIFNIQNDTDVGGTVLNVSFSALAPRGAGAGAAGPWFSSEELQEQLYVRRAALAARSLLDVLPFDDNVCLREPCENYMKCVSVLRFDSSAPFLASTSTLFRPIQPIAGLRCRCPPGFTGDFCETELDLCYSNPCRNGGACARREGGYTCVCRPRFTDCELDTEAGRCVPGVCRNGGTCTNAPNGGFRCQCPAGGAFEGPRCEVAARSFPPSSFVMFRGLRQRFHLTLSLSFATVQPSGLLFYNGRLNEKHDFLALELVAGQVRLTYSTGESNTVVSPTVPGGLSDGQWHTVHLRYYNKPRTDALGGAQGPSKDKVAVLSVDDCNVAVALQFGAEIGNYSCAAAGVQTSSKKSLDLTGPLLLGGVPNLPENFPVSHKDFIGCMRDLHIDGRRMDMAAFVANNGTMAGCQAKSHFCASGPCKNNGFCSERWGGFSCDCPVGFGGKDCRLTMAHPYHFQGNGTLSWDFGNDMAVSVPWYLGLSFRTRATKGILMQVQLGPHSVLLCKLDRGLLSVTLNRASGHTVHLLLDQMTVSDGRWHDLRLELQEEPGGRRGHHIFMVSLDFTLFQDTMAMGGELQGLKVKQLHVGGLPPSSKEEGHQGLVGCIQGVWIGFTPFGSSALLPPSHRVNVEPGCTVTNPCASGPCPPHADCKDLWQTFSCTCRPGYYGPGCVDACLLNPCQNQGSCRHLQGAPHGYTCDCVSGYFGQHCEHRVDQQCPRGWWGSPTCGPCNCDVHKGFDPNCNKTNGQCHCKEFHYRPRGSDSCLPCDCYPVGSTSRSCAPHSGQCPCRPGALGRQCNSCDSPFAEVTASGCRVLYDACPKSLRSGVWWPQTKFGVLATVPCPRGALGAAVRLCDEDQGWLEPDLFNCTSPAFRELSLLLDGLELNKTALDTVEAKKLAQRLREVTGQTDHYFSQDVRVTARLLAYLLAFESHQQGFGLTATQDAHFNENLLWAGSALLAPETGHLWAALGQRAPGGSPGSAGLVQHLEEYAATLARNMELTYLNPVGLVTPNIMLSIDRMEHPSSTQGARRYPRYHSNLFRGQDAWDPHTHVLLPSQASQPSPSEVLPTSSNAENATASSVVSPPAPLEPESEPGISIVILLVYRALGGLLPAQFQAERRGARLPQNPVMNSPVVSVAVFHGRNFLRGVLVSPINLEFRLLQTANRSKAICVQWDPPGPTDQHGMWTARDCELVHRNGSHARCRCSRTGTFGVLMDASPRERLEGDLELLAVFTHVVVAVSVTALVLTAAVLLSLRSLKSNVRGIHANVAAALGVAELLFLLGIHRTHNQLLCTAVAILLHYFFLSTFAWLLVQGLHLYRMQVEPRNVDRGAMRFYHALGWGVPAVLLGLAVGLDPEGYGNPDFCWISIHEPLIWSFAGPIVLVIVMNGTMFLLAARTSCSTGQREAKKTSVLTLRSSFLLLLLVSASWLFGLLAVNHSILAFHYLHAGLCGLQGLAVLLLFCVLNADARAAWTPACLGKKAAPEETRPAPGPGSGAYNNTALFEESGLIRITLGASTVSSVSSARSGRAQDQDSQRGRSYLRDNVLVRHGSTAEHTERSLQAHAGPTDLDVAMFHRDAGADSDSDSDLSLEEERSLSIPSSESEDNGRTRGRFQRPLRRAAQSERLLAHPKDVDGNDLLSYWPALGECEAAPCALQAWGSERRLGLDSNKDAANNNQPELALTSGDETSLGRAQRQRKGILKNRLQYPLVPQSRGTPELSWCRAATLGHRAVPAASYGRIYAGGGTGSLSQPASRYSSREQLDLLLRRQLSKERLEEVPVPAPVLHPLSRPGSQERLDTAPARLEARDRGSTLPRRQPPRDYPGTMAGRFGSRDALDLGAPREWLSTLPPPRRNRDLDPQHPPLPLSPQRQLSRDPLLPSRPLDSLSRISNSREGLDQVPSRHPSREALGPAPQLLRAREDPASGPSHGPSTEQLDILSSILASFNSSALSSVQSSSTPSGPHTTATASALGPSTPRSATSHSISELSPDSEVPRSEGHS

How the values were obtained:
[1] = biological target: T1, Frizzled3-HA (Mus musculus (Mouse)) (UniProt Q61086); assay: co-IP of the intercellular complex (IP: Flag, blot HA), quantified; Frizzled3-HA and Celsr3-IRES in cell a, Celsr3-flag with or without Flag-Vangl2 in cell b, with or without Aβ oligomer
T1 sequence: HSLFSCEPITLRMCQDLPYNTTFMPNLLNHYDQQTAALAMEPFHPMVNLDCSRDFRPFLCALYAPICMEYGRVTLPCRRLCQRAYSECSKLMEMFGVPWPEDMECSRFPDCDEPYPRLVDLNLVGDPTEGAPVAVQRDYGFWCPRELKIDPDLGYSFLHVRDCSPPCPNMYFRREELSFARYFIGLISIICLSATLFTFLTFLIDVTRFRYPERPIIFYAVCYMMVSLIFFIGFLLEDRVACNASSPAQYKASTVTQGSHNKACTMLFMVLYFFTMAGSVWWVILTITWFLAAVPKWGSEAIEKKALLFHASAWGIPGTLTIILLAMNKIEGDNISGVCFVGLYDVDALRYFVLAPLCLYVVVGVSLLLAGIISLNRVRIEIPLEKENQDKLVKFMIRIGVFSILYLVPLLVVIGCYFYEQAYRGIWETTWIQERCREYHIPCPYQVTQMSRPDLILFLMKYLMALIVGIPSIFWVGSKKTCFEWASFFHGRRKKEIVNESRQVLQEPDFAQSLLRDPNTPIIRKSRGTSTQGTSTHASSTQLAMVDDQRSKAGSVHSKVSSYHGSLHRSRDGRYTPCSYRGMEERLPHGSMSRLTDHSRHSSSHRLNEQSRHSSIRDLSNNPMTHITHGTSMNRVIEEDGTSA

[2] = biological target: T1, Frizzled3-HA (Mus musculus (Mouse)); assay: co-IP (IP: Flag, blot HA) and its quantification; both proteins in the same HEK293T cell
[3] = biological target: T1, Frizzled3-HA (Mus musculus (Mouse)); assay: co-IP of the intercellular complex (IP: Flag, blot HA); Frizzled3-HA and Celsr3-IRES in cell a, Celsr3-flag with or without Flag-Vangl2 in cell b, with or without Aβ oligomer

binding [1]: binds
binding [2]: binds
binding [3]: binds
Substance: mouse Celsr3 (Celsr3-Flag) (from UniProt Q91ZI0 32-3301) (receptor)
